Data as given in PMC9106718.
These are yes or no findings as the source states them, for the method shown. In cells and extracts the contact can be indirect. Some binding calls cover weakened binding; strength is not graded here.

Protein sequences, listed by entry. Tags and fused reporters are not part of them.
UniProt O15260: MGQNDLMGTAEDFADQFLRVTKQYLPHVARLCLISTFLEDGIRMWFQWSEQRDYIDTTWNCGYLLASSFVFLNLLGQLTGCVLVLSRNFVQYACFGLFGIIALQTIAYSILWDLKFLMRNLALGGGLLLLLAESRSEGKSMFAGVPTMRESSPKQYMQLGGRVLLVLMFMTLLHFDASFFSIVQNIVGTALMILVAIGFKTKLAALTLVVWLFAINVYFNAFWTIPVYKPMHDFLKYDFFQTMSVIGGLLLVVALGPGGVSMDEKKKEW

Target: human Surf4 with an N-terminal GFP tag (human) (UniProt O15260)
Experiment: co-IP; INS-1 832/13 cells expressing GFP-hSurf4; lysate incubated with Dynabeads Protein G coupled with anti-GFP (3E6) or normal mouse IgG 60 min at room temperature; blotted with anti-Sec12 and anti-GFP

binding: binds
B1: endogenous Sec12 (protein, UniProt Q9WTV0 1-417)
chain: MGRRRGVELYRAPFPLYALRIDPKTGLLIAAGGGGAAKTGIKNGVHFLQLEQISGCLSASLLHSHDTETRATMNLALAGDILAAGQDAQCQLLRFQIHQQKGSKAEKSGSKEQGPRQRKGAAPAEKKSGAEVHPEGVELKVKNLEAVQTDFSTEPLQKVVCFNHDNTLLATGGSDGHVRVWKVPSLEKVLEFKAHEGEIGDLALGPDGKLVTVGWDFKASVWQKDQLVTQLQWQENGPTSSNTPYRYQACRFGQVPDQPGGLRLFTVQIPHKRLRQPPPCYLTAWDSSTFLPLQTRSCGHEVISCLTVSESGTFLGLGTVTGSVAIYIAFSLQRLYYVKEAHGIVVTDVTFLPEKGCGPKLLGPHETALFSVAVDSRCQLHLLPSRRSVPVWLLLLLCVGLIIVTILLLQSAFPGFL
